Laboratory results from PubChem BioAssay AID2685 (National Center for Advancing Translational Sciences (NCATS), 2010).
The other results are listed elsewhere or left out. These are further read-outs of the screen, such as a control signal, another cell line or another target. No call is given for them. Most of these compounds were active or inconclusive in the main read-out, so they are no random draw. Words in brackets tell the shape of the fitted curve; partial curves, single points and poor fits give uncertain potencies.

Test: qHTS Assay for Lipid Storage Modulators in Drosophila S3 Cells;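 as to cell number change: cells counted by Cell Tracker Red CMTPX staining in the red channel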
Settings: BODIPY lipid droplet fluorescence, 18-24 h; for cell number change: measured here: cell count max response, cells fed with added oleic acid
Summary of the method: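 Drosophila S3 cells loaded with oleic acid (400 uM, as added) and compounds at several concentrations; lipid droplets imaged by 488-nm laser-scanning cytometry, 500–530 nm intensity and object ratio to cell channel. Percent activity normalized to 20 uM Triacsin C.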

[1] = measured here: lipid fluorescence (Fed channel) AC50, cells fed with added oleic acid
[2] = measured here: cell number channel AC50, cells fed with added oleic acid

SMILES | AC50 [1] | cell number change [%] | AC50 [2]
COc1cccc(N2CCN(C(=O)c3ccc4nc[nH]c4c3)CC2)c1 | 6.51 µM [rising, single point] |  | 
COc1ccc(-c2cc(=O)oc3c(C)c(OCC(=O)Nc4cccnc4)ccc23)cc1 | 29.1 µM [falling, single point] | 18.7 | 
Cn1c(SCC(=O)NC2CCCC2)nnc1-c1ccncc1 | 0.411 µM [falling, full curve, poor fit] | -21.5 | 
Cc1ccc2c(=O)c(C(=O)NCc3cccs3)c[nH]c2c1 | 1.3 µM [rising, partial curve] | -2.57 | 
COC(=O)CC1=NN(c2ccccc2)C(=O)/C1=C\c1ccc(OC)cc1 |  | -22.8 | 
CCc1ccc(N(CC(=O)Nc2ccc(NC(C)=O)cc2)S(=O)(=O)c2ccccc2)cc1 | 2.06 µM [rising, partial curve, poor fit] | 13.9 | 6.51 µM [rising, single point]
CCOc1ccc(NC(=O)c2ccc(NC(=O)COC(=O)c3ccc(NC(=O)CC#N)cc3)cc2)cc1 | 5.8 µM [falling, full curve] | -24.1 | 
O=C(Nc1cccc(C(=O)N2CCCC2)c1)c1ccccc1 |  | 72.2 | 29.1 µM [rising, single point]
Cc1cc(C)cc(OCC(=O)Nc2ccncc2)c1 | 29.1 µM [falling, single point] | 6.2 | 
Cc1ccc(CNC(=O)CCCn2c(=O)[nH]c3ccccc3c2=O)cc1 | 3.26 µM [falling, full curve] | 1.17 | 
CC1Cc2ccccc2N1C(=O)C(C)n1cc(C(F)(F)F)cc(Cl)c1=O (stereo unspecified) | 0.184 µM [rising, full curve, poor fit] | -6.46 | 
C/C(=N\N=C(N)N)c1ccc(C)c(C)c1 | 5.8 µM [rising, full curve, poor fit] | 23.5 | 4.11 µM [rising, full curve, poor fit]
CC1=C(C(=O)OC(C)C)C(c2cccs2)NC(=O)N1 (stereo unspecified) |  | -5.58 | 0.58 µM [falling, single point]
CC(=O)Oc1ccc2ccccc2c1C(NC(=O)Cc1ccccc1)c1ccc(Cl)cc1 (stereo unspecified) | 6.51 µM [rising, single point] | -13.9 | 
COCCN1CCN(Cc2nc(C3(c4ccc(C)cc4)CCCC3)no2)CC1 |  | 43.1 | 16.4 µM [rising, partial curve, poor fit]
CC1=NNC(=O)C1CCC(=O)N/N=C(/C)c1ccc([N+](=O)[O-])cc1 (stereo unspecified) | 3.26 µM [falling, full curve, poor fit] | -3 | 
CCCCCOc1ccc(C(=O)Nc2ccc(S(=O)(=O)Nc3cc(C)on3)cc2)cc1 |  | 784 | 20.6 µM [rising, partial curve]
Cn1nc([N+](=O)[O-])nc1Oc1ccccc1F | 23.1 µM [rising, partial curve] | 126 | 23.1 µM [rising, partial curve]
CCCn1c(C(O)c2ccc(OC)c(OC)c2)nc2ccccc21 (stereo unspecified) | 14.6 µM [falling, partial curve] | -17.2 | 
COc1ccc(C2C=C(c3ccccc3)Nc3ncnn32)cc1 (stereo unspecified) | 0.58 µM [rising, single point] |  | 
Cc1csc(NC(=O)CSc2nncc(=O)n2N)n1 |  | 19 | 
Cc1cc(C)c(C)c(S(=O)(=O)ON2C(=O)c3ccccc3C2=O)c1C | 8.2 µM [falling, partial curve] | -37.3 | 23.1 µM [falling, single point]
Cc1cc(Cl)cc2sc(NC(=O)C3CC3)nc12 | 0.116 µM [rising, full curve, poor fit] | 4.61 | 
Cc1c(C)c2c(OCC(=O)Nc3cccnc3)cc3c(c2oc1=O)CCC(C)(C)O3 | 29.1 µM [rising, single point] | 35.6 | 18.4 µM [rising, partial curve, poor fit]
CCOc1ccc(Oc2ccc(C(F)(F)F)cc2NC(=O)C2=COCCO2)cc1 | 16.4 µM [falling, single point] | -36.9 | 16.4 µM [falling, single point]
COc1cc(/C=C/C(=O)Nc2ccc(N3CCCCC3)c(S(=O)(=O)Nc3ccccc3Cl)c2)cc(OC)c1OC | 6.51 µM [falling, single point] | 0.594 | 
Cc1ccc(N2CCN(/N=C/c3ccccc3[N+](=O)[O-])CC2)cc1 | 29.1 µM [falling, single point] | -9.41 | 
Cc1cc(N2CCOCC2)nc2ccc(NC(=S)N3CCN(c4ccccc4)CC3)cc12 | 32.6 µM [falling, single point] | -54.7 | 25.9 µM [falling, single point]
Cc1ccccc1C(=O)NNc1ccc(-c2csnn2)cc1 | 32.6 µM [falling, single point] | -31.9 | 

Given in markdown: part of the list above.

| SMILES | AC50 [1] | cell number change [%] | AC50 [2] |
| --- | --- | --- | --- |
| COc1ccc(-c2cc(=O)oc3c(C)c(OCC(=O)Nc4cccnc4)ccc23)cc1 | 29.1 µM [falling, single point] | 18.7 |  |
| Cn1c(SCC(=O)NC2CCCC2)nnc1-c1ccncc1 | 0.411 µM [falling, full curve, poor fit] | -21.5 |  |
